The list shows a part of the results. Hit calls seldom repeat between salt and free forms of one compound.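 Kinases were expressed as nanoluciferase fusions in K562 cells and luminescence was read every 4 h between 2 and 18 h as percent of control, DMSO set to 100% and a positive control to 0%. A time point counts as decreased when the signal drops significantly (2 sigma). The hit call is the authors' own, does not follow from the count of time points alone, and its rule is not shown.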
Target: HER2 (UniProt P04626)
Assay: number of time points (of 5) at which kinase-Nluc abundance scored as decreased, DMSO-normalised (count); higher = more persistent destabilization
Details: K562; 2-18 h

Row | Structure (SMILES) | number of time points
1 | CCc1c(C(=O)NNC(=O)C(O)c2cc(F)cc(F)c2)ccc(O)c1C (stereo not given) (10 µM) | 0
2 | COc1cc2ncnc(Nc3ccc(Cl)cc3F)c2cc1OC (10 µM) | 0
3 | COc1cc(/C=C/C(=O)NCC(O)c2ccc(O)cc2)ccc1O (stereo not given) [N-Feruloyloctopamine] (2.5 µM) | 0
4 | NC(=O)c1nc(Nc2ccccc2)sc1NC(=O)C1CCCCC1 (10 µM) | 0
5 | O=c1cc(CN2CCOCC2)occ1OCCCCCSc1ccnc2cc(C(F)(F)F)ccc12 (10 µM) | 0
6 | O=C(O)CCC(=O)Nc1ccc(Br)cn1 [Bikinin] (10 µM) | 0
7 | CC[C@@H](Oc1nc(Oc2cc(C)cc(-c3cccc(CN)c3)c2)c(F)cc1F)C(=O)O (10 µM) | 0
8 | C[C@]1(O)CCN(c2nc(N3C[C@H](O)[C@@H](O)C3)cc(C(F)(F)F)c2C#N)C1 (10 µM) | 0
9 | COc1ccccc1-c1cc(Nc2cccc(CS(N)(=O)=O)c2)ncn1 (10 µM) | 0
10 | CC(=O)c1c(C)cc2cccc(O)c2c1O [Nepodin] (10 µM) | 0
11 | NC(=O)c1ccc2[nH]ccc2c1 (10 µM) | 0
12 | COc1cc2c(cc1OC)CN(S(=O)(=O)c1ccc(OC)c(N3CCN(C(=O)c4ccc(F)cc4C(F)(F)F)CC3)c1)CC2 (10 µM) | 0
13 | OCCn1cc(-c2ccc3c(c2)CC/C3=N\O)c(-c2ccncc2)n1 (10 µM) | 0
14 | C[C@@H]1CC[C@@H](Nc2nc(NC(C)(C)C)ncc2C(N)=O)C[C@H]1O (10 µM) | 0
15 | CCc1cc2c(cc1N1CCC(N3CCOCC3)CC1)C(C)(C)c1[nH]c3cc(C#N)ccc3c1C2=O [Alectinib] (10 µM) | 0

Some values from the results shown.
Under number of time points, OCCn1cc(-c2ccc3c(c2)CC/C3=N\O)c(-c2ccncc2)n1 (10 µM) reads 0
Under number of time points, COc1cc2ncnc(Nc3ccc(Cl)cc3F)c2cc1OC (10 µM) reads 0
